Data on 40 targets can be found in the supplement of paper PMC7666118.

Amino acid sequences for entries named in this document (tags omitted). A change or cut given only in a name is not applied to a line headed by its entry.
UniProt Q96RK0: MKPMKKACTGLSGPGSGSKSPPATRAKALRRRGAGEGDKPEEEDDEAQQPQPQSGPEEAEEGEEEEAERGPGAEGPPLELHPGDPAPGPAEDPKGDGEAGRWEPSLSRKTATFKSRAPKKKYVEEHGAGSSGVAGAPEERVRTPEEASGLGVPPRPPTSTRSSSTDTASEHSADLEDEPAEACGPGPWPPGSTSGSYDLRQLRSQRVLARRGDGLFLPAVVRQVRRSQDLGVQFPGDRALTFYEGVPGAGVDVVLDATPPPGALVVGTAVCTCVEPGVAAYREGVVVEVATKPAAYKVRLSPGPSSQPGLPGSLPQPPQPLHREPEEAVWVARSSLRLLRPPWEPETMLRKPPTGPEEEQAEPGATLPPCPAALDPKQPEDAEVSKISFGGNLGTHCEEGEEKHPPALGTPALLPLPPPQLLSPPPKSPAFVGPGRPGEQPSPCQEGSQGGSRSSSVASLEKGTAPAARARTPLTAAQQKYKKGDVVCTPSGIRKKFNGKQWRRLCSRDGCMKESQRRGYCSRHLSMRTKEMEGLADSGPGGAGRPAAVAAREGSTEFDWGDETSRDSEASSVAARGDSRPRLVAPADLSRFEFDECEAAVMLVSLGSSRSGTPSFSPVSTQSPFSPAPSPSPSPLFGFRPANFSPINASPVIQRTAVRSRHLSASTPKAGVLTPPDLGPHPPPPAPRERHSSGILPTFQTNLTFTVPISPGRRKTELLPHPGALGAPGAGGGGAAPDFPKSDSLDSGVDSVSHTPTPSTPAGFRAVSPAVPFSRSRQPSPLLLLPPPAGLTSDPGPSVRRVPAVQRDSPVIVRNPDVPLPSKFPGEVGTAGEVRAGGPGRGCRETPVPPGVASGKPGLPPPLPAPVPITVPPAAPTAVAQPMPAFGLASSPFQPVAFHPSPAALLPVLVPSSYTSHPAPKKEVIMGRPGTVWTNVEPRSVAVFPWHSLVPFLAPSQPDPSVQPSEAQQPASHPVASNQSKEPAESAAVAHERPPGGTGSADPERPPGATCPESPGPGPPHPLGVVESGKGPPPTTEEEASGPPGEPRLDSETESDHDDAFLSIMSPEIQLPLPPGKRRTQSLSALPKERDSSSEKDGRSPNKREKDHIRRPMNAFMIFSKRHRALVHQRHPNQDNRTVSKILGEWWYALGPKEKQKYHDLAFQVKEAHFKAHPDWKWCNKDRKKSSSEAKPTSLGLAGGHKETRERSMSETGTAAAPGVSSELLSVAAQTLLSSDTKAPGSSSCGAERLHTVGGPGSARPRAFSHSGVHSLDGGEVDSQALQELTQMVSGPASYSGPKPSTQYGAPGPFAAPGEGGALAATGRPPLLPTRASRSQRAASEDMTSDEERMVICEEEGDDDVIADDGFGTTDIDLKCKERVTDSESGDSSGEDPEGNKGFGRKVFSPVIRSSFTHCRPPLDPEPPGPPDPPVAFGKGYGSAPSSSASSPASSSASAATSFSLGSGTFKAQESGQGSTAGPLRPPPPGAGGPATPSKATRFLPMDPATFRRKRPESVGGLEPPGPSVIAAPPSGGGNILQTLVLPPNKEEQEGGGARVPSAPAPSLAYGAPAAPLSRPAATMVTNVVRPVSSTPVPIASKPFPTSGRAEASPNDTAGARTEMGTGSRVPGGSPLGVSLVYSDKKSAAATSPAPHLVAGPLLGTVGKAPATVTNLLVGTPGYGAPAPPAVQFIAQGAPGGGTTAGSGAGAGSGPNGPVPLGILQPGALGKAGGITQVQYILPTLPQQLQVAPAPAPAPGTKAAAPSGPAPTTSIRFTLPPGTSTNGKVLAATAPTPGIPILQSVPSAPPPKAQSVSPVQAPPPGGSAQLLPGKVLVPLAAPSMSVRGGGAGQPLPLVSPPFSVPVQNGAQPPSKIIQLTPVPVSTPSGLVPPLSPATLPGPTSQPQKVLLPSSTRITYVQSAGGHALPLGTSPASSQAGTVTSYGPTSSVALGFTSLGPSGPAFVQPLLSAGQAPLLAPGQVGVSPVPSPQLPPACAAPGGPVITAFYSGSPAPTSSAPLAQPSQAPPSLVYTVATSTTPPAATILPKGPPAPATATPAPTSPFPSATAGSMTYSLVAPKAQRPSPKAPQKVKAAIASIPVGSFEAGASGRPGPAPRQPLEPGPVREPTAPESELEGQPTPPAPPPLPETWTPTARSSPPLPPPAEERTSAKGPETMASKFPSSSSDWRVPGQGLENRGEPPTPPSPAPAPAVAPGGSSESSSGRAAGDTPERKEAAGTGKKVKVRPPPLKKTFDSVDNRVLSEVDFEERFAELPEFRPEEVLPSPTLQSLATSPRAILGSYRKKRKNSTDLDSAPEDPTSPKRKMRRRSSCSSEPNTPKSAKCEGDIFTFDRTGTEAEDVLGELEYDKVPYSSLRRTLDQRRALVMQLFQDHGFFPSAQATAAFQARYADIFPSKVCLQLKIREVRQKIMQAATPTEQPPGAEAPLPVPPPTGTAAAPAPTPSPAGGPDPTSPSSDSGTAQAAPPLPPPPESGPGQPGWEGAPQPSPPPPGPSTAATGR
UniProt P55273: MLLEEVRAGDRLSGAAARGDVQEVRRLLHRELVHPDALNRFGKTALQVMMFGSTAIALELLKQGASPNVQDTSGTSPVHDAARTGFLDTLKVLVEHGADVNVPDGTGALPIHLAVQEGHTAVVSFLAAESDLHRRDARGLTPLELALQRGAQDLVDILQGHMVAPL
UniProt P06493, whole entry, looked up: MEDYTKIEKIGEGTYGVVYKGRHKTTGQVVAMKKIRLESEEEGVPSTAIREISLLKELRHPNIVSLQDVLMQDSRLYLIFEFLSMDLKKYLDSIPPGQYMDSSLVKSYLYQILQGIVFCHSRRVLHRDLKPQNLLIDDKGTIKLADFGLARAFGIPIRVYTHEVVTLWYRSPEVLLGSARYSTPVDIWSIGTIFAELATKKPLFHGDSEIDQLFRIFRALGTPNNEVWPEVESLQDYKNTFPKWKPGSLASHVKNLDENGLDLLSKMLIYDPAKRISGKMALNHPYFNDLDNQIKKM
UniProt Q9GZQ3, whole entry: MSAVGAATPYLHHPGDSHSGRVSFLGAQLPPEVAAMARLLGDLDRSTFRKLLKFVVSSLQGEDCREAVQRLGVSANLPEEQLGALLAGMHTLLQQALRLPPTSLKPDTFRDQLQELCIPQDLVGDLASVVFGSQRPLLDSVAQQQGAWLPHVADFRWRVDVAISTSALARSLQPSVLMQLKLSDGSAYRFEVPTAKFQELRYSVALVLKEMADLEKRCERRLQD
UniProt Q9Y3E7, whole entry: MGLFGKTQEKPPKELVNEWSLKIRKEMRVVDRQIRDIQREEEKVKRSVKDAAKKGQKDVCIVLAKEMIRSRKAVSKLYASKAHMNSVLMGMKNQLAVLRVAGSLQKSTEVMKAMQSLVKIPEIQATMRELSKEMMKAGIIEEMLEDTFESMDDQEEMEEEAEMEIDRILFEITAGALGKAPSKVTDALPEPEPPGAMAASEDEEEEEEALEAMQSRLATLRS
UniProt Q8N163, whole entry: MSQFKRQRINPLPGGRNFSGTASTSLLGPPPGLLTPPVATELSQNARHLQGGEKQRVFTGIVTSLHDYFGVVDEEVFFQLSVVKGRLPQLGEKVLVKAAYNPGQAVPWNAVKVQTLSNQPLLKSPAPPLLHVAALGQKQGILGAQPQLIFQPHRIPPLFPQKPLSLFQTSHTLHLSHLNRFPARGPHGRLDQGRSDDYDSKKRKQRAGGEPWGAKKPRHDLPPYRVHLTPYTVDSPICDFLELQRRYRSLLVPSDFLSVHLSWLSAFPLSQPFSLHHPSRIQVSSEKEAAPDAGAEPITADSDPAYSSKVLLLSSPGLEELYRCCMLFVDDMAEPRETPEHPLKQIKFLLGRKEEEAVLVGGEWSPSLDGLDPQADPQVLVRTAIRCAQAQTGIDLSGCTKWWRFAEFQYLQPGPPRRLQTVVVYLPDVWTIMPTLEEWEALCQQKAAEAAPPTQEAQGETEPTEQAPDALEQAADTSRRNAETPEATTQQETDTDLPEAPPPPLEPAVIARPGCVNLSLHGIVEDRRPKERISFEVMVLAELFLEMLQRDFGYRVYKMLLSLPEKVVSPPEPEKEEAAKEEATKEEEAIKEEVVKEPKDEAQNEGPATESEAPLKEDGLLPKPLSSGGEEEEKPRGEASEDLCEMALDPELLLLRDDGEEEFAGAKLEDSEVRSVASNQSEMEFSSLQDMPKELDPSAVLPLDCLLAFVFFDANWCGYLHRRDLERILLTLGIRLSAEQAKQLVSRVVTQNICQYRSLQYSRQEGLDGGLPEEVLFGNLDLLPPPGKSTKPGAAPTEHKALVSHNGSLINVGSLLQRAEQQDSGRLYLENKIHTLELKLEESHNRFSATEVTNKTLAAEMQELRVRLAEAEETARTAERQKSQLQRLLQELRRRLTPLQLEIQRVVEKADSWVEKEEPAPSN
UniProt Q96G28: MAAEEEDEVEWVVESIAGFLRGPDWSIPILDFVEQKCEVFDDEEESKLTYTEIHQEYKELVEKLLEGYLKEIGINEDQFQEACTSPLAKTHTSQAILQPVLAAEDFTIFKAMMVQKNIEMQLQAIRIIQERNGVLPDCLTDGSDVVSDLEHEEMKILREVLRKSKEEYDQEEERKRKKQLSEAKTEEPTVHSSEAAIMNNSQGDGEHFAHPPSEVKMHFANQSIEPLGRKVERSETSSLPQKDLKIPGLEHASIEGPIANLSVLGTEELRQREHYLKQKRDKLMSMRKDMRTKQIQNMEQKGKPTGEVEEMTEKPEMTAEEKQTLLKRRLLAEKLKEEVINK
UniProt O60508: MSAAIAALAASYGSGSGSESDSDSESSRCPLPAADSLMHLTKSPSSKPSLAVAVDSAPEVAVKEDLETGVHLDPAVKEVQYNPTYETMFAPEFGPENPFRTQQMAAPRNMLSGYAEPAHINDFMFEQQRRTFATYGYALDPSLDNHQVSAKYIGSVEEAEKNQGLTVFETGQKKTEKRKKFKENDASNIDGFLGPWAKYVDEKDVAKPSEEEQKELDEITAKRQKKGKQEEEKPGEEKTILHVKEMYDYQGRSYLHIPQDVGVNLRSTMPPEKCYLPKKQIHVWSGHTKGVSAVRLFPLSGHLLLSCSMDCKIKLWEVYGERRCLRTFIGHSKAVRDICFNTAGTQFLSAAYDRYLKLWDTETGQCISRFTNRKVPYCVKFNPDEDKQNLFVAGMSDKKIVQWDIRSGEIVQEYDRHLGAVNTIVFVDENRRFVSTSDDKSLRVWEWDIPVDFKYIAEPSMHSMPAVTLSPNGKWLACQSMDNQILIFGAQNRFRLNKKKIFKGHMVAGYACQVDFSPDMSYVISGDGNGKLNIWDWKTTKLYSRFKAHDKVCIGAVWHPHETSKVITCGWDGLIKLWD
UniProt O75122: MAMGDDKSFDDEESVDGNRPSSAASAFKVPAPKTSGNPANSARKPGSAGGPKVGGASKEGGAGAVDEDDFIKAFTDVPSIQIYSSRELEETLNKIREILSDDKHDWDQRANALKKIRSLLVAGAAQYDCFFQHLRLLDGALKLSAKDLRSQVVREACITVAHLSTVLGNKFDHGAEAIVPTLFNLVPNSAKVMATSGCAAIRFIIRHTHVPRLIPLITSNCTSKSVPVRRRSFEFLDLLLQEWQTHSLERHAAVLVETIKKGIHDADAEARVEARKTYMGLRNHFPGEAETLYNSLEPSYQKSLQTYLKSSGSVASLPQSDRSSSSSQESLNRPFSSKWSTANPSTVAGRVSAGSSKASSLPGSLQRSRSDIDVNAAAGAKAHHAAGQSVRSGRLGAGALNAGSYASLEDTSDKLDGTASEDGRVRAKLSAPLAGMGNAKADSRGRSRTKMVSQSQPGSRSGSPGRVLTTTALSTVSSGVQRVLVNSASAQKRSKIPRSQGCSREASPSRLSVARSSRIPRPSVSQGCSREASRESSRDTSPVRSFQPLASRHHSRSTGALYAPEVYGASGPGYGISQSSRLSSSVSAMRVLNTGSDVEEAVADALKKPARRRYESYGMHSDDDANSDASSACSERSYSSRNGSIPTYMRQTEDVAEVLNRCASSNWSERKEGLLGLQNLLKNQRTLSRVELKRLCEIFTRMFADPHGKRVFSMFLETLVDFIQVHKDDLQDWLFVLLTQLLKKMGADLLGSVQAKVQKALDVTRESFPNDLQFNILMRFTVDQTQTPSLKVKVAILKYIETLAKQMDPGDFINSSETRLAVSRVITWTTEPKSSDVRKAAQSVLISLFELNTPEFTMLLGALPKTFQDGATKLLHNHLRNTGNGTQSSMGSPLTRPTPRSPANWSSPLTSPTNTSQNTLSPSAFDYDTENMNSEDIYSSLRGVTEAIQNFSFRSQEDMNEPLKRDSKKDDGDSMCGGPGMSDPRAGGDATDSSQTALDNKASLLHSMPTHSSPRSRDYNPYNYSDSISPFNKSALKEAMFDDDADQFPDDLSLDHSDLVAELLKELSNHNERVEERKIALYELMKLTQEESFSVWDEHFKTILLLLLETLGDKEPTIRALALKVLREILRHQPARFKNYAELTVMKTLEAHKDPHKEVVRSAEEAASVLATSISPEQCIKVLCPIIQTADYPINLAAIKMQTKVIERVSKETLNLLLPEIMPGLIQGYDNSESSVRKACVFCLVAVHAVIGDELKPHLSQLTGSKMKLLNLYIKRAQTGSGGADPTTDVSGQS

Some of the results follow.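 The calls were made as follows: active = dose-dependent thermal stabilisation significant by F-test of dose-response against flat model at 10% FDR; inactive = not significant.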

Compound in the experiment: Nc1nc2c(ncn2[C@@H]2O[C@H](COP(=O)(O)OP(=O)(O)OP(=O)(O)O)[C@@H](O)[C@H]2O)c(=O)[nH]1
Put plainly: dose-dependent thermal stabilisation call (2D-TPP, DLPTP, 10% FDR) (binary (1 = stabilised)); higher = stabilised by the compound. The conditions noted are these: system: Jurkat gel-filtered lysate; concentration range 1-500 µM. The method, then:
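2D thermal proteome profiling in gel-filtered Jurkat E6.1 lysate (2 mg/ml) treated with NaGTP (0, 1, 10, 100, 500 uM) for 10 min at room temperature, then heated 3 min at one of 12 temperatures (42-63.9 C). Soluble protein was quantified by TMT10 MS. The value is the DLPTP call of the paper: dose-dependent thermal stabilisation over all temperatures at 10% FDR (F-test of a dose-response against a flat model); one experiment, one call per tested protein.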
With COPS2 (UniProt P61201), the “dose-dependent thermal stabilisation call” value is inactive: 0. The value for CNOT4 (UniProt O95628) was inactive: 0.

On to CBFB (UniProt Q13951), for which the “dose-dependent thermal stabilisation call” value is inactive: 0.

Turning to CHAF1A (UniProt Q13111), the “dose-dependent thermal stabilisation call” value was active: 1.

For the target CHKB (UniProt Q9Y259), the “dose-dependent thermal stabilisation call” value is inactive: 0. The value for CCDC43 (UniProt Q96MW1) was inactive: 0. For COPS4 (UniProt Q9BT78), the “dose-dependent thermal stabilisation call” value was inactive: 0. The value for CEBPZ (UniProt Q03701) was inactive: 0; that for CIC (UniProt Q96RK0) was inactive: 0. The value for CNOT3 (UniProt O75175) was inactive: 0; that for CENPK (UniProt Q9BS16) was inactive: 0; that for COA4 (UniProt Q9NYJ1) was inactive: 0.

On to CDKN2D (UniProt P55273), for which the “dose-dependent thermal stabilisation call” value was inactive: 0. The value for CCDC88A (UniProt Q3V6T2) was inactive: 0. For the target CEBPG (UniProt P53567), the “dose-dependent thermal stabilisation call” value is inactive: 0. In the case of CEP55 (UniProt Q53EZ4), the “dose-dependent thermal stabilisation call” value was inactive: 0. To CDK1 (UniProt P06493) belongs inactive: 0. To CDK5 (UniProt Q00535) belongs active: 1; to COMMD5 (UniProt Q9GZQ3), inactive: 0; to CHMP3 (UniProt Q9Y3E7), inactive: 0. The value for CNP (UniProt P09543) was active: 1.

As to CDK4 (UniProt P11802), the “dose-dependent thermal stabilisation call” value is inactive: 0.

With CCDC186 (UniProt Q7Z3E2), the “dose-dependent thermal stabilisation call” value is inactive: 0. The value for CIZ1 (UniProt Q9ULV3) was inactive: 0; that for CASTOR2 (UniProt A6NHX0) was inactive: 0; that for CETN2 (UniProt P41208) was inactive: 0. To CCAR2 (UniProt Q8N163) belongs inactive: 0.

As for CASP8AP2 (UniProt Q9UKL3), the “dose-dependent thermal stabilisation call” value is inactive: 0. The value for CFAP36 (UniProt Q96G28) was inactive: 0; that for CASP9 (UniProt P55211) was inactive: 0. To CHKA (UniProt P35790) belongs active: 1.

On to CDADC1 (UniProt Q9BWV3), for which the “dose-dependent thermal stabilisation call” value was inactive: 0.

As to COASY (UniProt Q13057), the “dose-dependent thermal stabilisation call” value was active: 1. Regarding CDK7 (UniProt P50613), the “dose-dependent thermal stabilisation call” value was inactive: 0. With CLPX (UniProt O76031), the “dose-dependent thermal stabilisation call” value was active: 1. To CDC40 (UniProt O60508) belongs inactive: 0.

On to CLINT1 (UniProt Q14677), for which the “dose-dependent thermal stabilisation call” value was inactive: 0. Consider COL4A3BP (UniProt Q9Y5P4), for which the “dose-dependent thermal stabilisation call” value was inactive: 0. For the target COMMD1 (UniProt Q8N668), the “dose-dependent thermal stabilisation call” value is inactive: 0. CLASP2 (UniProt O75122): the “dose-dependent thermal stabilisation call” value is inactive: 0.
